Data taken from ChEMBL document CHEMBL3988442, “University of Dundee, Small-Polar-MMV Screening Library” (2021).

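Viability assay of Plasmodium falciparum sporozoites; the read-out is not stated. The concentration is filed as 10 mM, unlikely as a test dose, so the dose is not known. The record gives no direction; compounds that gave an IC50 in retests scored well above the rest, so higher reads as lower viability. Strong results were mostly tested again. Size under these conditions: about 34,000 compounds, about 280 of them at 50% or above in at least one test.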

Each number is a percent effect as filed. The controls that fix the scale are not given in the record; negative values are as filed. This is an unselected part of the compounds tested. Two or more numbers in one place are separate tests of the same structure; such repeats can differ widely.

SMILES,Percent Effect
CCc1csc(C2CCCN(C(=O)c3ccnc(N(C)C)c3)C2)n1 (stereo not shown),12.97
COCC(=O)NCCc1ccc(I)s1,-6.563
CN(CCc1cccs1)C1CCCN(Cc2noc(C3CC3)n2)C1 (stereo not shown),-10.3
O=C(O)C(F)(F)F.[H][C@@]12CN(C(=O)c3ccoc3)C[C@]1([H])OCCN2C,-27.47
COCCN(C)CCN1CC2(CCN(C3CCNCC3)CC2)OC1=O,4.474
COc1cccc(N2CCN(C(=O)C(O)CC(C)C)CC2=O)c1 (stereo not shown),0.1065 & -6.188 & -5.085
Cc1ccn(CCC(=O)N2CCOC(c3nc(-c4cccs4)no3)C2)n1 (stereo not shown),-27.26 & -3.769 & -27.07
O=C(NCC1CC1)c1c2c(N3CCCC3)ncnc2n2ccccc12,-15.33
CNC(=O)N1CCc2cc(C(=O)N(C)C)c(NCC3CC3)nc2CC1.O=C(O)C(F)(F)F,-13.15
CC(C)[C@@H]1CN(S(=O)(=O)Cc2ccccc2)C[C@H]1C(=O)O,-18.06
COc1ccc(CNCc2c(C(C)C)nn(C)c2OC)cn1,9.964
COC(=O)c1ccc(N2CCN(CCC(=O)NC(N)=O)C(C)C2)cc1 (stereo not shown),3.83
COc1ccccc1OC1CN(C(=O)C(c2ccc(F)cc2)N(C)C)C1 (stereo not shown),-8.653
CNc1snc(C)c1C(=O)N1CCCC(n2cccn2)C1 (stereo not shown),6.572
CC(C)(C)c1cccc(OCC(=O)NS(=O)(=O)c2cccnc2)c1,4.571
Cc1cc(C)nc(Nc2cccc(C3CCCN(CCO)C3)n2)n1 (stereo not shown),2.332
O=C1C(Nc2ccc3nccnc3n2)CCN1c1ccccc1F (stereo not shown),-9.9
Cc1oc(C(=O)O)cc1S(=O)(=O)Nc1c(F)cccc1-n1cccn1,2.575
Cc1ccc(C(=O)N2CCOC(c3ncc(CN(C)C)[nH]3)C2)cc1F (stereo not shown),3.314
O=C(CCCOc1ccc(F)cc1F)N1CCCC1Cn1cccn1 (stereo not shown),-2.2
CC(=O)Nc1nc(C(=O)N2CCCC2c2noc(C(C)C)n2)cs1 (stereo not shown),3.64
Cc1nc(-c2ccc(C(=O)O)cc2)cc(C2CCN(C(C)C)CC2)n1,-1.101
O=C(NCC1CCOC1)Nc1ccc(OCC(F)(F)F)nc1 (stereo not shown),-8.857
Cc1cnn(CC(C)NCc2nc(-c3ccsc3)oc2C)c1 (stereo not shown),-12.91 & -12.49 & 47.91
COCCN1CCN(C(=O)C2CC=CC2)Cc2cccnc21,-12.66
CCc1noc(CN2CCCC2c2noc(C3CC3)n2)n1 (stereo not shown),6.72
CCc1c(C(=O)O)nnn1-c1cccc(C)c1C,5.769
CN(C)c1ncccc1CNC(=O)N1CCCC1CN1CCCC1 (stereo not shown),21.21
COc1ccc(C(C)CCNC2CCN(c3ccccn3)CC2)cc1 (stereo not shown),-4.902
c1csc(-c2noc(CNC3CCc4ncnn4C3)n2)c1 (stereo not shown),-0.983
Cc1c(C(=O)NCc2ccnc(OCC(F)(F)F)c2)cnn1C,6.72
CC(C)(O)CN1CCC(=O)N(Cc2ccco2)Cc2cc(F)ccc21,-3.349
Cc1cnc2[nH]c(C(F)(F)F)c(CN3CCCC(CO)C3)c2c1 (stereo not shown),7.749
COc1ccccc1C1CCN(C(=O)CN2C(=O)OC(C)(C)C2=O)CC1,18.58 & -10.37
COc1ccc(OC2CCN(C(=O)CCc3nc(Cl)n[nH]3)CC2)cc1,-13.49
Cl.N#CC1(C(=O)NCC2CCC3(CCNCC3)O2)CC1 (stereo not shown),4.79
CCN(CCCc1ccccc1)CC1(C)Cc2c(N)nc(N)nc2O1 (stereo not shown),10.37
O=C(Nc1ccccc1)c1ccc2c(c1)C1(CCCCC1)CN2.O=C(O)C(F)(F)F,-2.3
CC(C)Oc1ccc(C(=O)N2CCCSCC2CN(C)C)cc1 (stereo not shown),11.37
CC(C)OCCCNC(=O)CS(=O)(=O)Cc1ccc(C(C)C)cc1,5.217
Cc1cccc(Nc2ccc(C3CCCCN3)cn2)n1 (stereo not shown),97.8 & 85.07 & 40.73
CNC(=O)c1cnn2c(C3CCCN3)ccnc12 (stereo not shown),10.8
O=C(NCc1nnc2n1CCC2)NCC1(c2cccc(F)c2)CC1,-4.208
CCc1nn(C)c(CC)c1CNC(=O)Nc1cccc([S+](C)[O-])c1 (stereo not shown),2.781
O=C(CCc1ccccc1)N1CCC(N2CCNC2=O)CC1,-13.23 & -3.931 & -13.39
COc1cccc2c1OCC(CNC(=O)CNC(N)=O)C2 (stereo not shown),-13.61
Cc1ccc(C)c(NC(=O)N(C)Cc2cnn(C)c2)c1,2.24
CC1(c2nccs2)CCN(C(=O)CCN2CCOCC2)CC1,2.246
Cn1ccc(C(=O)N2CCCC2c2[nH]ncc2C(N)=O)n1 (stereo not shown),3.652
CN1CCC(Oc2ccc(-n3ccnc3-c3ccncc3)cc2)CC1,-0.1159 & -13.27
CC1(C)CC(N(Cc2ccncc2)Cc2cccnc2)CC(C)(C)N1.O=C(O)CC(O)(CC(=O)O)C(=O)O,1.674
COc1cccc(C(=O)N2CCN(C(=O)CCn3ccnc3)CC2)c1,-25.69 & -23.43
COc1cc(C(=O)N(Cc2ccco2)C2CC2)cc(OC)c1OC,1.225
O=C(O)C(F)(F)F.[H][C@@]12OCCN(C(=O)C3CCOCC3)[C@@]1([H])CC[C@H]2Oc1ccccn1,12.59
Cc1cnc(C(=O)N2CCN(c3ncc4c(n3)CCOC4)CC2)cn1,3.208
O=C(c1n[nH]c2ccccc12)N1CCCC1c1noc(C2CC2)n1 (stereo not shown),-9.617 & -1.727 & -9.604
CNc1cc2c(nn1)CCN(C(=O)c1ccccc1-n1cccn1)C2,-2.149
CC(C)n1ccnc1C1CCN(Cc2ccc(Cl)s2)CC1,-0.6543
CN(Cc1cnn(C)c1)C(=O)NCCc1ccc2c(c1)OCO2,-0.983
CC(C)CN1CCc2[nH]nc(C(=O)N3CCCC3)c2C1.O=C(O)C(F)(F)F,9.796
O=C(O)C(F)(F)F.O=C1COC2(COCCN(c3ccccn3)C2)CN1c1cccc(F)c1 (stereo not shown),1.448
COc1c(CNC2CCCOc3ccccc32)c(C(C)C)nn1C (stereo not shown),12.96
CC(C)NC(=O)N1CCN(Cc2ccccn2)CC2(CC(=O)N(C)C2)C1.O=C(O)C(F)(F)F.O=C(O)C(F)(F)F (stereo not shown),13.67
Cl.c1cnc(Nc2cncc(C3CCCN3)n2)cn1 (stereo not shown),8.941
COc1c(CNCc2ccnc(N(C)C)c2)c(C(C)C)nn1C,3.476